Data set [1] in a line: general procedure: Boc solid-phase peptide synthesis; 4-methylbenzhydrylamine (MBHA) resin, 200-400 mesh, 1% DVB, 0.45 mmol/g; DIC and HOBt (solid phase); EDC and HOBt (template coupling in solution). The settings on record: for conjugation yield: conjugation step; for isolated yield / crude mass / isolated mass: whole synthesis.
A short description of data set [2]: peptide synthesis. The settings on record: conjugation step.

Take TMA-[(Gly-Pro-Nleu)9 --NH2 ]3: the conjugation yield in data set [1] is 20%.

In data set [1], KTA-[Gly-(Gly-Pro-Nleu)3 --NH2 ]3 had an isolated yield of 6%. For the same substance, in data set [1] (scale 0.45 mmol), the crude mass is listed as 255 mg and the isolated mass was 65 mg.

On to KTA-[Gly-(Gly-Nleu-Pro)3 --NH2 ]3, for which the isolated yield in data set [1] is reported as 6%. Also, in data set [1] (scale 0.35 mmol), the isolated mass was determined as 20 mg.

Substance Ac-(Gly-Pro-Nleu)9 --NH2 displayed an isolated yield in data set [1] of 29%.

In turn, KTA-[Gly-Gly-Pro-Nleu-NH2 ]3 displayed a conjugation yield in data set [1] of 80%.

In data set [1], KTA-[Aha-(Gly-Pro-Nleu)6 --NH2 ]3 came in with an isolated yield of 9%. In data set [1] (scale 0.45 mmol), this substance registered a crude mass of 200 mg and an isolated mass of 53 mg.

For Ac--(Gly--Pro--Hyp)6 --NH2, the isolated yield in data set [1] stood at 39%.

As to Ac--(Gly--Pro--Hyp)3 --NH2, the isolated yield in data set [1] was 42%.

Substance Ac-(Gly-Pro-Nleu)6 --NH2 showed an isolated yield in data set [1] (scale 0.45 mmol) of 47%.

On to KTA-[Gly-(Gly-Pro-Nleu)9 --NH2 ]3, for which the conjugation yield in data set [1] stood at 10%.

For Ac-(Gly-Nleu-Pro)3 --NH2, the isolated yield in data set [1] (scale 0.35 mmol) stood at 47%.

In data set [1] (scale 0.3 mmol), KTA-[Gly-Gly-Pro-Hyp-NH2 ]3 came in with an isolated mass of 55 mg and an isolated yield of 56% yield.

The substance TMA-[Gly-(Gly-Pro-Nleu)6 --NH2 ]3 returned an isolated yield in data set [1] of 10%. For the same substance, in data set [1] (scale 0.3 mmol), the isolated mass is given as 35 mg.

KTA-[Gly-(Gly-Nleu-Pro)6 --NH2 ]3 had an isolated yield in data set [1] of 4.4%. For the same substance, in data set [1] (scale 0.5 mmol), the isolated mass turned out to be 30 mg.

Substance TMA-[Gly-Gly-Pro-Nleu-NH2 ]3 gave a conjugation yield in data set [1] of 38%.

KTA--[Gly--(Gly--Pro--Hyp)5 --NH2 ]3 yielded an isolated yield in data set [1] of 12%.

In data set [1] (scale 0.2 mmol), (Gly-Pro-Nleu)3 --NH2 returned an isolated mass of 90 mg and an isolated yield of 55%.

In data set [1] (scale 0.2 mmol), (Gly-Nleu-Pro)9-NH2 displayed an isolated mass of 90 mg and an isolated yield of 55%.

KTA--[Gly--(Gly--Pro--Hyp)3 --NH2 ]3 returned an isolated yield in data set [1] of 35%.

On to KTA-[Gly-(Gly-Pro-Nleu)6 --NH2 ]3, for which, in data set [2], the conjugation yield worked out at 21%. In addition, in data set [1], the isolated yield was found to be 14%. The crude mass in data set [1] (scale 0.3 mmol) is recorded as 245 mg.

In data set [1], Ac--(Gly--Pro--Hyp)5 --NH2 came in with an isolated yield of 35%.

Values taken from US6096710 (dated 2000).
